# Laboratory results: publication PMC12431657, “Discovery and mechanistic insights of dibenzoylmethane as a broad spectrum inhibitor of coronavirus” (PLOS Pathogens, 2025)
# Where a name gives a salt, the structure may show the parent alone. Read-outs that look alike come from different tables or passages of the source. The campaign covered roughly 3,300 compounds. About 95 (3%) showed an effect of 50% or more. Some of the results follow.
# System: HCoV-229E
# Design: species or system Huh-7; HTS, protection from HCoV-229E induced cell death, luminescent cell viability (CellCounting-Lite 2.0), inhibition rate
# Conditions: 24 h post infection, 1 h compound pre-incubation, 10 µM, inhibitor
Structure (SMILES),229E Inhibition rate [%],"229E Inhibition rate (229E Inhibition rate, 24 h) [%]"
C[C@H](O)[C@H]1CC[C@H]2[C@@H]3CC[C@@H]4C[C@H](O)CC[C@]4(C)[C@H]3CC[C@]12C [Pregnanediol],19.1,
CC(C)=CC(=O)C[C@H](C)c1ccc(C)cc1 [ar-Turmerone],53,
CCc1c2c(nc3ccc(OC(=O)N4CCC(N5CCCCC5)CC4)cc13)-c1cc3c(c(=O)n1C2)COC(=O)[C@]3(O)CC [Irinotecan (hydrochloride)],20.2,
CSCC[C@H](N)C(=O)O [L-Methionine],38.9,
"CCCCCCCC/C=C\CCCCCCCC(=O)OCC(COC(=O)CCCCCCC/C=C\CCCCCCCC)OC(=O)CCCCCCCCCCCCCCC [1,3-Dioleoyl-2-palmitoylglycerol]",12.3,
C=C1C(=O)O[C@H]2[C@H]1CCC(C)=C1CC[C@@](C)(O)[C@@H]12 [Micheliolide],11.4,
CCOC(=O)NCCCC(=O)NCCc1ccccc1 [Santacruzamate A],6.7,
COc1ccc2c(c1)[nH]c1c(C)nccc12 [Harmine],,12.2
CC[C@H]1[C@@H]2C[C@H]3[C@@H]4N(C)c5ccccc5[C@]45C[C@@H]([C@H]2[C@H]5O)N3[C@@H]1O [Ajmaline],44.9,
O=C(O)c1cc(O)c(O)c(O)c1 [Gallic acid (hydrate)],,34.3
Cc1ccc(C(C)C)cc2c(C)ccc1-2 [Guaiazulene],29.8,
C=C1CCC2(C(C)C)CC12 (stereo not drawn) [Sabinene],9,
NC(=O)c1ncn([C@@H]2O[C@H](CO)[C@@H](O)[C@H]2O)c1O [Mizoribine],7.9,
Cn1cnc2c(ncn2[C@@H]2O[C@H](CO)[C@@H](O)[C@H]2O)c1=N [1-Methyladenosine],12.1,
CCc1cc(C(N)=S)ccn1 [Ethionamide],8.8,
COC(=O)Nc1ccc(C)c(NC(=O)OC)c1 [Obtucarbamate A],22.6,
C[S+]([O-])CC[C@H](N)C(=O)O (stereo partly drawn) [L-Methionine sulfoxide],,11.6
C=C(C)[C@@H]1CC[C@]2(C=O)CC[C@]3(C)[C@H](CC[C@@H]4[C@@]5(C)CC[C@H](O)C(C)(C)[C@@H]5CC[C@]43C)[C@@H]12 [Betulinaldehyde],26.8,
Cc1ncc(COP(=O)(O)O)c(C=O)c1O [Pyridoxal 5'-phosphate (monohydrate)],,28.9
COc1cc2c(c(OC)c1OC)-c1c(cc3c(c1OC)OCO3)C[C@H](C)[C@H](C)C2 [Gomisin N],,42.9
O=C(O)CNC(=O)c1cccc(O)c1 [3-Hydroxyhippuric acid],19.6,

Structure (SMILES),229E Inhibition rate [%],"229E Inhibition rate (229E Inhibition rate, 24 h) [%]"
OCc1ccc(O[C@@H]2O[C@H](CO)[C@@H](O)[C@H](O)[C@H]2O)cc1 [Gastrodin],46.1,
N[C@H](Cc1ccccc1)C(=O)O [D-Phenylalanine],16.6,
CO[C@H]1[C@H](O)[C@H](O[C@H]2CC[C@@]3(C)[C@H](CC[C@@H]4[C@@H]3CC[C@]3(C)[C@@H](C5=CC(=O)OC5)CC[C@]43O)C2)O[C@@H](C)[C@@H]1O [Neriifolin],28.8,
O=c1c(-c2ccc(O)cc2)coc2cc(O)cc(O)c12 [Genistein],17.6,
CCOC(=O)/C=C/c1ccc(O)c(OC)c1 [Ethyl ferulate],18.3,
"COc1cc(OC)c(C(=O)O)cc1OC [2,4,5-Trimethoxybenzoic acid]",10.6,
COc1cc([C@@H]2c3cc4c(cc3[C@H](O)[C@H]3COC(=O)[C@H]23)OCO4)cc(OC)c1OC [Podofilox],36.4,
C=CCc1ccc(O)c(-c2ccc(O)c(CC=C)c2)c1 [Honokiol],45.8,
N[C@@H](CCS)C(=O)O [L-Homocysteine],12.1,
C/C1=C\C[C@]2(C(C)C)CC[C@@](C)(O2)[C@@H](O)CC/C(C)=C/CC1 [Incensole],23.8,
CC[C@@]1(O)C(=O)OCc2c1cc1n(c2=O)Cc2cc3cc(OC)ccc3nc2-1 [10-Methoxycamptothecin],7.1,
O=C(O[C@@H]1Cc2c(O)cc(O)cc2O[C@@H]1c1cc(O)c(O)c(O)c1)c1cc(O)c(O)c(O)c1 [(-)-Epigallocatechin Gallate],14.2,
C[C@@H]1O[C@@H](OC[C@H]2O[C@@H](Oc3c(-c4ccc(O)cc4)oc4cc(O)cc(O)c4c3=O)[C@H](O)[C@@H](O)[C@H]2O)[C@H](O)[C@H](O)[C@H]1O [Biorobin],8.3,
CC(C)(CO)[C@@H](O)C(=O)NCCCO [D-Panthenol],8,
C[C@@H]1O[C@@H](O[C@@H]2[C@@H](O)[C@H](OCCc3ccc(O)c(O)c3)O[C@H](CO)[C@H]2OC(=O)/C=C/c2ccc(O)c(O)c2)[C@H](O)[C@H](O)[C@H]1O [Verbascoside],11.8,
CCCCCCC/C=C/C(=O)CCc1ccc(O)c(OC)c1 [[8]-Shogaol],39.3,
CC1=C(C=O)C(C)(C)CC=C1 [Safranal],11.9,
COc1ccc(/C=C\c2cc(OC)c(OC)c(OC)c2)cc1OP(=O)(O)O [Fosbretabulin (disodium)],17.4,
O=c1c(O[C@@H]2O[C@H](CO)[C@H](O)[C@H](O)[C@H]2O[C@@H]2O[C@H](CO)[C@@H](O)[C@H](O)[C@H]2O)c(-c2ccc(O)cc2)oc2cc(O)cc(O)c12 [Panasenoside],23,
CC(C)=C1C/C=C(\C)CC/C=C(\C)CC1=O [Germacrone],21.9,
C=C[C@]1(C)C=C2CC[C@H]3[C@@](C)(CCC[C@@]3(C)C(=O)O)[C@@H]2CC1 [Continentalic acid],5.1,

# Individual results from above.
# In 229E Inhibition rate [%], `CCOC(=O)/C=C/c1ccc(O)c(OC)c1` [Ethyl ferulate] shows 18.3
# In 229E Inhibition rate [%], `O=c1c(-c2ccc(O)cc2)coc2cc(O)cc(O)c12` [Genistein] shows 17.6
# In 229E Inhibition rate [%], `O=C(O)CNC(=O)c1cccc(O)c1` [3-Hydroxyhippuric acid] shows 19.6

# Going on with the list.

Structure (SMILES),229E Inhibition rate [%],"229E Inhibition rate (229E Inhibition rate, 24 h) [%]"
COc1ccc(-c2oc3c(CC=C(C)C)c(O[C@@H]4O[C@H](CO)[C@@H](O)[C@H](O)[C@H]4O)cc(O)c3c(=O)c2O[C@@H]2O[C@@H](C)[C@H](O)[C@@H](O[C@@H]3O[C@H](CO)[C@@H](O)[C@H](O)[C@H]3O)[C@H]2O)cc1 [Epimedin A1],8.7,
CC(C)C[C@H](NC(=O)[C@@H](O)[C@H](N)Cc1ccccc1)C(=O)O [Bestatin (hydrochloride)],,27.1
CO[C@H]1C[C@@H]2CC[C@@H](C)[C@@](O)(O2)C(=O)C(=O)N2CCCC[C@H]2C(=O)O[C@H]([C@H](C)C[C@@H]2CC[C@@H](O)[C@H](OC)C2)CC(=O)[C@H](C)/C=C(\C)[C@@H](O)[C@@H](OC)C(=O)[C@H](C)C[C@H](C)/C=C/C=C/C=C/1C [Rapamycin],8.5,
CO[C@H]1/C=C/O[C@@]2(C)Oc3c(C)c(O)c4c(c3C2=O)C(=O)C=C(NC(=O)/C(C)=C\C=C\[C@H](C)[C@H](O)[C@@H](C)[C@@H](O)[C@@H](C)[C@H](OC(C)=O)[C@@H]1C)C4=O [Rifamycin S],9.2,
O=C(O)[C@H](O)[C@@H](O)CO [Calcium L-Threonate],7.8,
COc1cc(CCC(=O)CC(O)CCc2ccc(O)c(OC)c2)ccc1O (stereo not drawn) [Hexahydrocurcumin],10.9,
COc1cc(-c2[o+]c3cc(O)cc(O)c3cc2O)cc(O)c1O [Petunidin (chloride)],13.2,
"COc1cccc(OC)c1C(=O)O [2,6-Dimethoxybenzoic acid]",48.8,
O=C1O[C@H]2[C@@H]3OC(=O)c4cc(O)c(O)c(O)c4-c4c(cc(O)c(O)c4O)C(=O)OC[C@H]2O[C@@H](OC(=O)c2cc(O)c(O)c(O)c2)[C@@H]3OC(=O)c2cc(O)c(O)c3c2[C@@H]2C1=CC(=O)[C@](O)(O3)C2(O)O [Geraniin],9.9,
C[C@@H]1CC[C@H]2[C@@H](C)C(=O)O[C@@H]3O[C@@]4(C)CC[C@@H]1[C@]32OO4 [Artemisinin],15.5,
O=C1C[C@@H](c2cc(O)c(O)c(O[C@@H]3O[C@H](CO)[C@@H](O)[C@H](O)[C@H]3O)c2)Oc2cc(O)cc(O)c21 [Plantagoside],11.2,
COc1ccc2cc3[n+](cc2c1OC)CCc1cc(O)c(O)cc1-3 [Demethyleneberberine],40.5,
"CC(=O)c1cc(O)ccc1O [2,5-Dihydroxyacetophenone]",11.4,
c1cncnc1 [Pyrimidine],21.9,
"COc1ccc(/C=C/C(=O)O)cc1OC [3,4-Dimethoxycinnamic acid]",,26.8
COc1ccc(/C=C/c2cc(OC)cc(=O)o2)cc1 [Yangonin],44,
"C=C1CC[C@@H]2[C@](C)(CO)[C@H](O)CC[C@@]2(C)[C@@H]1/C=C/C1=CCOC1=O [14-Deoxy-11,12-didehydroandrographolide]",40.5,
COc1cc(/C=C/C(=O)OC[C@H]2O[C@@H](O[C@@H]3[C@@H](O)[C@H](O)[C@@H](CO)O[C@H]3c3c(OC)cc4oc(-c5ccc(O)cc5)cc(=O)c4c3O)[C@H](O)[C@@H](O)[C@@H]2O)ccc1O [6‴-Feruloylspinosin],11.5,
COc1cc2c(=O)c(-c3ccc(O)cc3)coc2cc1O[C@@H]1O[C@H](CO)[C@@H](O)[C@H](O)[C@H]1O [Glycitin],11.5,
O=C1C=C2C=C[C@@H](O)[C@H](O)[C@H]2O1 [Griffonilide],12.9,
COc1cc(COC(=O)CCCC/C=C/C(C)C)ccc1O [Capsiate],9,

# Reformatted: entries from further up.
Structure (SMILES) | 229E Inhibition rate [%] | 229E Inhibition rate (229E Inhibition rate, 24 h) [%]
O=C1C[C@@H](c2cc(O)c(O)c(O[C@@H]3O[C@H](CO)[C@@H](O)[C@H](O)[C@H]3O)c2)Oc2cc(O)cc(O)c21 [Plantagoside] | 11.2 | 
COc1ccc2cc3[n+](cc2c1OC)CCc1cc(O)c(O)cc1-3 [Demethyleneberberine] | 40.5 | 
